According to patent publication US20090036416A1, “Novel CXCR4 Antagonist and Use Thereof” (Kyoto University, priority 2005, published 2009):
At least one peptide structure holds a part that was inferred or is arguable (an end, a ring closure or a residue). For part of these data: For at least one compound, name, drawing or mass did not settle the structure. Bridge positions count the residues as written; N and C are the ends. Square brackets hold non-standard residues; d marks the D form. Peptide text beside a SMILES is read from it. 2Nal = N[C@@H](Cc1ccc2ccccc2c1)C(=O)O; Cit = NC(=O)NCCC[C@H](N)C(=O)O

By UniProt entry, the sequences of proteins in these tests, tags left out.
UniProt P61073, whole entry: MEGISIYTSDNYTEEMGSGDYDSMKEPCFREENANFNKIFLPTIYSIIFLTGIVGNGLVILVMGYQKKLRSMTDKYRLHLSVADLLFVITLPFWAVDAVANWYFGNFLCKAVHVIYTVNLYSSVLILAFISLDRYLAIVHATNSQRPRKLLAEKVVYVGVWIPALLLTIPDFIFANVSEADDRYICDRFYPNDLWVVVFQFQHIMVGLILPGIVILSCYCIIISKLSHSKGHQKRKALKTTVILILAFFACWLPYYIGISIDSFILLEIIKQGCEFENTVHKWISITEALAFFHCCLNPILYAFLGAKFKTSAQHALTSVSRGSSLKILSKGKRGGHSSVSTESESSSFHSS

Experiments:
[1] = biological target: T1, CXCR4 (Homo sapiens, UniProt P61073); assay: CXCR4 antagonistic activity: inhibition of Ca2+ movement induced by SDF-1a in CXCR4 transfected CHO cells (Fura-2); type: cell-based
Description: Various aromatic compounds each having a dipicolylamine-zinc complex were prepared, and their CXCR4 antagonistic effects were examined using the following method.
A CXCR4 transfected Chinese hamster ovary(CHO) cells (3×10^4 cell/100 μL/well) were plated in each well of a flat-bottomed micro-titer tray. The samples were incubated in a CO2 incubator at 37° C., and the cells were loaded in Ham F-12 buffer(80 μL/well) for an hour at 37° C., together with 5 μM Fura-2AM (Dojindo, Kumatomo, Japan), 2.5 mM Probenecid (Sigma) and 20 mM HEPES(pH7.4).
Thereafter, the cells were washed twice with Hank's balanced salt solution (100 μL×2), and placed in a spectrofluorimeter (96 well Fluorescence Drug Screening System, Hamamatsu Photonics K.K. Japan). 30 seconds after the measurement started, the cells were incubated in Hank's balanced salt solution with plural test compounds of different concentrations. After 3 minutes, recombinant SDF-1a (PreproTech, 30 nM/[…]/well) was added.
Changes of the CXCR4 transfect CHO cell system loaded with Fura2-A[Ca^2+], were recorded in real time with a modification method of Fura-2. The CXCR4 antagonistic effect was measured based on the inhibition of Ca^2+ movement induced by the stimulation of SDF-1a via CXCR4 (IC50).

[2] = biological target: T1, CXCR4; assay: CXCR4 binding activity: inhibition of 125I-SDF-1a bonding to CXCR4 transfected CHO cells; conditions: inhibition of 125I-SDF-1a (0.1 nM) bonding, 1 h at 0° C.

Row | Structure (SMILES) | CXCR4 antagonistic activity (in words) ([1]; comment in the text on Tables 1 to 3) | IC50 [2] [nM] | IC50 ([1]; inhibition of Ca2+ movement induced by SDF-1a (30 nM) via CXCR4, CXCR4 transfected CHO cells) [nM]
1 | c1ccc(CN(Cc2cccc(-c3cccc(CN(Cc4ccccn4)Cc4ccccn4)c3)c2)Cc2ccccn2)nc1 [Example Compound 3] | significantly high CXCR4 antagonistic activity | – | –
2 | NCCCC[C@@H]1NC(=O)[C@H](CCCN=C(N)N)NC(=O)[C@H](Cc2ccc(O)cc2)NC(=O)[C@@H](NC(=O)[C@H](Cc2ccc3ccccc3c2)NC(=O)[C@H](CCCN=C(N)N)NC(=O)[C@@H](N)CCCN=C(N)N)CSSC[C@@H](C(=O)N[C@@H](CCCN=C(N)N)C(=O)O)NC(=O)[C@H](CCCNC(N)=O)NC(=O)[C@H](CCCN=C(N)N)NC(=O)[C@H](Cc2ccc(O)cc2)NC(=O)[C@@H]2CCCN2C(=O)[C@@H](CCCCN)NC1=O [Reference Example Compound I, reference compound] (H-RR[2Nal]CYRK[dK]PYR[Cit]CR-OH; disulfide 4-13) | – | 0.93 | 3.1
